This assay addresses vimentin^ROD construct, vimentin residues 99-249 (coils 1A and 1B of the central rod domain) (human) (UniProt P08670). As to the kind of experiment: AUC; vimentin^ROD alone, in the presence of 150 mM NaCl; both purified.

Chains of the proteins cited; added tags and fusions are not shown. Residues count along the entry.
UniProt P08670, residues 99-249: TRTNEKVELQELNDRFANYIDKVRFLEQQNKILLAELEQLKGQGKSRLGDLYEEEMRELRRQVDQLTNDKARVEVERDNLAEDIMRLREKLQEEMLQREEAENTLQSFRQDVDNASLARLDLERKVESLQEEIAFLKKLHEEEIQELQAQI

These are yes or no findings as the source states them, for the method shown.

In the case of “vimentin^ROD construct, vimentin residues 99-249 (coils 1A and 1B of the central rod domain) (from UniProt P08670 99-249) (domain or fragment)”, the binding result is “no binding”.

The values are drawn from publication PMC4782060.
